{"source": "paper doi:10.1101/2025.10.21.683757", "key": {"[1]": {"target": "T1, JAKMIP1 N-terminus-mCherry fusion protein (expressed in SH-SY5Y cells) (UniProt Q96N16)", "T1 sequence": "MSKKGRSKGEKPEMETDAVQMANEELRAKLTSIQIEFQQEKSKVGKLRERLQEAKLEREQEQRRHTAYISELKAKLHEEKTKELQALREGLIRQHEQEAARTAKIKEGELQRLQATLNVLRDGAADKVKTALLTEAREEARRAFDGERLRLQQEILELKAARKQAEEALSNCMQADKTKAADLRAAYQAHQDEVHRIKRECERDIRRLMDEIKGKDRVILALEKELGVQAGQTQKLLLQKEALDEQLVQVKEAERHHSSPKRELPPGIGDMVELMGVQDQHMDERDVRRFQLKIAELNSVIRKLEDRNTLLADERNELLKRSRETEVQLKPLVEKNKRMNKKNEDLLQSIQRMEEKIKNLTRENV", "assay": "co-IP"}, "[2]": {"target": "T2, JAKMIP1 C-terminus-mCherry fusion protein (expressed in SH-SY5Y cells) (UniProt Q96N16)", "T2 sequence": "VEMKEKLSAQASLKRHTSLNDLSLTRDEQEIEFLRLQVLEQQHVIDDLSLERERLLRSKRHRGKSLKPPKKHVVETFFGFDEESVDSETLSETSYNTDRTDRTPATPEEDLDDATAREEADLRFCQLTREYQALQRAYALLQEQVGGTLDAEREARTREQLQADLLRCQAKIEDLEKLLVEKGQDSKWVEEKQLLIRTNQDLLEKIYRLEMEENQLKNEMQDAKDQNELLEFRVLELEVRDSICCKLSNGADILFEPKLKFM", "assay": "co-IP"}}, "note": "No constants are given. Whether binding was seen depends on the method and setting. Binding seen in cells or lysates may run through a third protein. A result given as binding can be weak or reduced; the word gives no strength. Tags and fused reporters may be left off the sequences shown.", "data": [{"substance": "β-Tubulin (human (endogenous in SH-SY5Y))", "values": [{"measurement": "binding", "setting": "[1]", "value": "binds"}, {"measurement": "binding", "setting": "[2]", "value": "binds"}]}]}
